Part of at least one peptide drawing is inferred or uncertain, most often the ends. Bridge positions count the residues as written; N and C are the ends. Square brackets hold non-standard residues; d marks the D form. Peptide text beside a SMILES is read from it. * marks the point of attachment. X1 = O=C(O)CN1CCN(CC(=O)O)CC(Cc2ccc(NC(=S)*)cc2)N(CC(=O)O)CC1; NMeF = CN[C@@H](Cc1ccccc1)C(=O)O
System: human granzyme-B
Assay: In-vivo PET/CT imaging in GvHD mouse model (human PBMC-engrafted NOG mice)
Conditions: i.v.

## CC(C)[C@@H]1NC(=O)[C@H](CC(=O)O)NC(=O)[C@H](Cc2ccc(O)cc2)NC(=O)[C@H](Cc2ccc(O)cc2)NC(=O)[C@H](Cc2ccccc2)N(C)C(=O)[C@H](Cc2ccccc2)N(C)C(=O)[C@H](Cc2ccccc2)NC(=O)CSC[C@@H](C(=O)NCC(=O)NCC(=O)N[C@@H](CCCCNC(=S)Nc2ccc(CC3CN(CC(=O)O)CCN(CC(=O)O)CCN3CC(=O)O)cc2)C(N)=O)NC(=O)[C@H](Cc2c[nH]cn2)NC(=O)[C@H](Cc2ccccc2)N(C)C(=O)[C@H](Cc2ccc(O)cc2)NC(=O)[C@H](C(C)C)NC(=O)[C@H](CC(=O)O)NC(=O)[C@H](C(C)C)NC(=O)[C@H](CC(=O)O)NC1=O (some centres unmarked) [Compound 6a, *F.NMeF.NMeF.Y.Y.D.V.D.V.D.V.Y.NMeF.H.*C.G.G.K(^18F-AlF-NOTA)-NH2] ({CH2CO}-F[NMeF][NMeF]YYDVDVDVY[NMeF]HCGGK(X1)-NH2; thioether N-15)
2 weeks after hPBMC engraftment, lack of GvHD onset
  PET tracer uptake, GvHD model vs NOG control: No significant difference
3 week after hPBMC engraftment, onset of GvHD, scan 1 h after injection, lung, liver, bone
  PET tracer uptake, GvHD model vs NOG control: significantly higher uptake in lung, liver, and bone in GvHD model than NOG control
